Measured data: PubChem BioAssay AID1259308 (NCATS, 2017)
In all, the deposit lists about 59,000 reagents; this is a part drawn at random. About 1,510 of all reagents (2.6%) were called active. 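Calls use total luciferase alone and ignore viability, so some active siRNAs may act by altering cell number.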 Reagents against one gene are numbered here. Further read-outs or replicates are left out here.

- Assay: 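Genes whose loss raises luciferase production in HEK293 cells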 (primary screen)
- Cell system: human HEK293 embryonic kidney cells stably expressing firefly luciferase (HEK-CMV-Luc2-Hygro)
- Reagent: single siRNA against human genes, 0.8 pmol siRNA per well
- Time to read-out: 72 h
- Measured: 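Luciferase light (ONE-Glo) measured on one replicate plate set and viability (CellTiter-Glo) on the other, scaled to a negative control siRNA, with robust z-scores and luciferase per cell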
- Scale: total luciferase, z-score: higher = more reporter protein produced
- Hit rule: 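Active when the median/MAD z-score for overall luciferase is greater than 3; a gene was taken forward for validation with new siRNAs if at least two of its three siRNAs passed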
- Calls: active = raised luciferase; inactive = no rise

total luciferase, z-score, by target gene and reagent
UHRF2: #1 -0.198 inactive; #2 -0.643 inactive; #3 -1.14 inactive
SDR16C6P: #1 -0.113 inactive; #2 0.645 inactive; #3 -0.0194 inactive
PDE8B: #1 -0.565 inactive; #2 -1.29 inactive; #3 -1.11 inactive
KCTD20: #1 0.253 inactive; #2 0.162 inactive; #3 -1.51 inactive
KLRK1: #1 -0.711 inactive; #2 -0.0357 inactive; #3 -0.457 inactive
GPSM2: #1 1.16 inactive; #2 -0.773 inactive; #3 -0.704 inactive
ZNF24: #1 -0.0144 inactive; #2 -1.24 inactive; #3 0.588 inactive
RAD51D: #1 0.11 inactive; #2 -1.48 inactive; #3 1.71 inactive

Sorted by “total luciferase, z-score” (highest first): 3 of the entries above.
target gene	reagent no.	total luciferase, z-score	Call
ZNF24	3	0.588	inactive
RAD51D	1	0.11	inactive
RAD51D	2	-1.48	inactive
